Data as given in article PMC12391444.
No constants are given. Whether binding was seen depends on the method and setting. Binding seen in cells or lysates may run through a third protein. Here binding means that the protein was enriched with, or labelled near, the bait; the list need not be complete.

Target: HA-tagged transforming acidic coiled-coil-containing protein 3 (TACC3) (UniProt Q9Y6A5)
Experiment: affinity purification with mass spectrometry; co-IP of HA-tagged TACC3 from transfected cells coupled with LC-MS

poly(A)-binding protein cytoplasmic 1 (PABPC1), endogenous (from UniProt P11940 1-636)
binding: binds
